# Measurements from the supplement of paper PMC8728848.
# The other results are listed elsewhere or left out.
# B1: RetS (Pseudomonas aeruginosa), Q9HUV7 (protein)
# chain: MVRLRIAIGLLVSFLLLLLGPMSPAVADDAGVSSVPLQTTATTPSANQNWRLLRDESAQLRIADVLQRKEQFRPLAKRSFIFPASPQAVWLQVQLPAQKVPSWLWIFAPRVQYLDYYLVQDGQLVRDQHTGESRPFQERPLPSRSYLFSLPVDGKPMTLYVRMTSNHPLMAWFDQIDEAGLVGLEKPAYAFGMLLGGMLLLLMYNLIRFAYSRSASSLWLAAVHAALAVCAAANLGLVAFWLPGLKFNQSLTADLGALGAAVSLLWFACSFFRGTAESRLNRLLQGEALLILAVGAIIAFTQQLWFSWLIYLLVILSSLSVPLIAAWHWYRGYQPARLIVAGMIVFNAGFMVFLPVLFGTKQLDPGWLVLGVFSFATLAGLVLSVSLTERQRLIQQLNLQQRTSEAAHTAELQTKAEFLAKISHEIRTPMNGVLGMTELLLGTPLSAKQRDYVQTIHSAGNELLTLINEILDISKLESGQIELDEVQFDLNALIEDCLDIFRVKAEQQRIELISFTQPQVPRVIGGDPTRLRQVVLSLLDNAFKQTEEGEILLVVALDDQGETPRLRIAVQDSGHPFDAKEREALLTAELHSGDFLSASKLGSHLGLIIARQLVRLMGGEFGIQSGSSQGTTLSLTLPLDPQQLENPTADLDGPLQGARLLVVDDNETCRKVLVQQCSGWGLNVSAVSSGKEALAQLRTKAHLREYFDVVLLDQDMPGMTGMQLAAKIKEDPNLNHDILLIMLTGISNAPSKIIARNAGIKRILAKPVAGYTLKATLADELAQRGVSGVTNYLQPAKEAQAPSLPSDFRILVAEDNSISTKVIRGMLNKLNLQPDTASNGQEALSAMKATQYDLVLMDCEMPVLDGFSATEQLRAWEAHEQRPHTPVVALTAHILSEHKERARLVGMDGHMAKPVELSQLRELIAYWVGERDRRRQGDALPS
# Key:
# Experiment in all cases: glycan array binding signal (z-score within array); higher = stronger binding
# Conditions in all cases: glycan notation: IUPAC condensed, linker removed
# [1] = target: Gal(a1-3)Gal
# Procedure, shortened: (§1)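 Columns mapping to the same glycan were averaged after glycan names were converted to IUPAC-condensed notation. The data come from 3228 arrays in the Consortium for Functional Glycomics database, limited to those with an available protein sequence. Binding is reported as a within-array Z-score averaged across arrays of one protein sequence and across linkers.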
# [2] = target: Gal(a1-3)Gal(b1-3)GlcNAc
# Procedure, shortened: as §1
# [3] = target: Gal(a1-3)Gal(b1-3)GlcNAc(b1-2)Man(a1-3)[Gal(a1-3)Gal(b1-3)GlcNAc(b1-2)Man(a1-6)]Man(b1-4)GlcNAc(b1-4)GlcNAc
# Procedure, shortened: as §1
# [4] = target: Gal(a1-3)Gal(b1-3)GlcNAc(b1-3)GalNAc
# Procedure, shortened: as §1
# [5] = target: Gal(a1-3)Gal(b1-3)[Fuc(a1-4)]GlcNAc(b1-2)Man(a1-3)[Gal(a1-3)Gal(b1-3)[Fuc(a1-4)]GlcNAc(b1-2)Man(a1-6)]Man(b1-4)GlcNAc(b1-4)GlcNAc
# Procedure, shortened: as §1
# [6] = target: Gal(a1-3)Gal(b1-4)Glc
# Procedure, shortened: as §1
# [7] = target: Gal(a1-3)Gal(b1-4)GlcNAc
# Procedure, shortened: as §1
# [8] = target: Gal(a1-3)Gal(b1-4)GlcNAc(b1-3)GalNAc
# Procedure, shortened: as §1
# [9] = target: Gal(a1-3)Gal(b1-4)[Fuc(a1-3)]GlcNAc
# Procedure, shortened: as §1
# [10] = target: Gal(a1-3)Gal(b1-4)[Fuc(a1-3)]GlcNAc(b1-2)Man(a1-3)[Gal(a1-3)Gal(b1-4)[Fuc(a1-3)]GlcNAc(b1-2)Man(a1-6)]Man(b1-4)GlcNAc(b1-4)GlcNAc
# Procedure, shortened: as §1
# [11] = target: Gal(a1-3)GalNAc
# Procedure, shortened: as §1
# [12] = target: Gal(a1-3)[Gal(a1-4)]Gal(b1-4)GlcNAc
# Procedure, shortened: as §1
# [13] = target: Gal(a1-4)Gal(b1-3)GlcNAc(b1-2)Man(a1-3)[Gal(a1-4)Gal(b1-3)GlcNAc(b1-2)Man(a1-6)]Man(b1-4)GlcNAc(b1-4)GlcNAc
# Procedure, shortened: as §1
# [14] = target: Gal(a1-4)Gal(b1-4)Glc
# Procedure, shortened: as §1
# [15] = target: Gal(a1-4)Gal(b1-4)GlcNAc
# Procedure, shortened: as §1
# [16] = target: Gal(a1-4)Gal(b1-4)GlcNAc(b1-2)Man(a1-3)[Gal(a1-4)Gal(b1-4)GlcNAc(b1-2)Man(a1-6)]Man(b1-4)GlcNAc(b1-4)GlcNAc
# Procedure, shortened: as §1
# [17] = target: Gal(a1-4)Gal(b1-4)GlcNAc(b1-3)Gal(b1-4)Glc
# Procedure, shortened: as §1
# [18] = target: Gal(a1-4)GlcNAc
# Procedure, shortened: as §1
# [19] = target: Gal(a1-6)Glc
# Procedure, shortened: as §1
# [20] = target: Gal(b1-2)Gal
# Procedure, shortened: as §1
# [21] = target: Gal(b1-3)Gal
# Procedure, shortened: as §1
# [22] = target: Gal(b1-3)Gal(b1-4)GlcNAc
# Procedure, shortened: as §1
# [23] = target: Gal(b1-3)Gal(b1-4)GlcNAc(b1-2)Man(a1-3)[Gal(b1-3)Gal(b1-4)GlcNAc(b1-2)Man(a1-6)]Man(b1-4)GlcNAc(b1-4)GlcNAc
# Procedure, shortened: as §1
# [24] = target: Gal(b1-3)GalNAc
# Procedure, shortened: as §1
# [25] = target: Gal(b1-3)GalNAc(a1-3)[Fuc(a1-2)]Gal(b1-4)Glc
# Procedure, shortened: as §1
# [26] = target: Gal(b1-3)GalNAc(a1-3)[Fuc(a1-2)]Gal(b1-4)GlcNAc
# Procedure, shortened: as §1
# [27] = target: Gal(b1-3)GalNAc(b1-3)Gal(a1-4)Gal(b1-4)Glc
# Procedure, shortened: as §1
# [28] = target: Gal(b1-3)GalNAc(b1-4)Gal(b1-4)Glc
# Procedure, shortened: as §1
# [29] = target: Gal(b1-3)GalNAc(b1-4)[Neu5Ac(a2-3)]Gal(b1-4)Glc
# Procedure, shortened: as §1
# [30] = target: Gal(b1-3)GlcNAc
# Procedure, shortened: as §1
binder,measurement,setting,value
B1,glycan array binding signal (z-score),[1],0.099
same,glycan array binding signal (z-score),[2],-1.37
same,glycan array binding signal (z-score),[3],0.69
same,glycan array binding signal (z-score),[4],-1.04
same,glycan array binding signal (z-score),[5],-1.42
same,glycan array binding signal (z-score),[6],0.203
same,glycan array binding signal (z-score),[7],-1.17
same,glycan array binding signal (z-score),[8],0.122
same,glycan array binding signal (z-score),[9],-1.19
same,glycan array binding signal (z-score),[10],1.1
same,glycan array binding signal (z-score),[11],-0.525
same,glycan array binding signal (z-score),[12],-0.109
same,glycan array binding signal (z-score),[13],5.23
same,glycan array binding signal (z-score),[14],-0.16
same,glycan array binding signal (z-score),[15],0.243
same,glycan array binding signal (z-score),[16],3.05
same,glycan array binding signal (z-score),[17],0.906
same,glycan array binding signal (z-score),[18],-0.886
same,glycan array binding signal (z-score),[19],-1.18
same,glycan array binding signal (z-score),[20],-1.33
same,glycan array binding signal (z-score),[21],-0.206
same,glycan array binding signal (z-score),[22],-1.56
same,glycan array binding signal (z-score),[23],-0.964
same,glycan array binding signal (z-score),[24],0.357
same,glycan array binding signal (z-score),[25],-0.01
same,glycan array binding signal (z-score),[26],-0.856
same,glycan array binding signal (z-score),[27],0.976
same,glycan array binding signal (z-score),[28],-0.081
same,glycan array binding signal (z-score),[29],1.86
same,glycan array binding signal (z-score),[30],0.373

# For reference, part of the list above:
binder,measurement,setting,value
B1,glycan array binding signal (z-score),[21],-0.206
same,glycan array binding signal (z-score),[22],-1.56
